# Percent effect of library compounds

From ChEMBL document CHEMBL3988442, “University of Dundee, Small-Polar-MMV Screening Library” (2021).

Mtb glucose medium: 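Whole-cell growth test on Mycobacterium tuberculosis, read after 3 days in glucose-containing 7H9 medium; the read-out is not stated. Compounds at 50 µM. Direction is inferred from retests: higher values go with more growth inhibition. Of about 69,000 compounds tested this way, about 760 (1.1%) reached 50% or more in at least one test.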
Mtb cholesterol medium: 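Whole-cell growth test on Mycobacterium tuberculosis, read after 4 days in a medium based on cholesterol and the lipid DPPC; the read-out is not stated. Concentration: 50 µM. The record gives no direction; compounds that gave an IC50 in retests scored well above the rest, so higher reads as more growth inhibition. Size under these conditions: about 69,000 compounds, about 370 of them at 50% or above in at least one test.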

Each number is a percent effect as filed. The record does not define 0% and 100%; most values in the screen are far below 50% and negative numbers occur (in some assays of this library far below -100). Compounds were drawn at random from those tested, without regard to their results. Two or more numbers in one place are separate tests of the same structure; such repeats can differ widely.

| SMILES | Mtb glucose medium | Mtb cholesterol medium |
|---|---|---|
| `Cn1ncc2c1CCCC2NCc1cccc2c1OCCCO2` (centres undefined) | 1.949% | -11.83% |
| `O=C(O)C(F)(F)F.O=C(O)C(F)(F)F.[H][C@@]12COC[C@@H](C(=O)NCc3ccccn3)[C@]1([H])CN(C1CCC1)C2` | -15.02% | 8.777% and -9.317% |
| `CC(=O)NS(=O)(=O)c1ccc(F)cc1C(F)(F)F` | -4.403% | -24.64% |
| `COc1ccc(OC)c(C2CCN(C3CCN(C(C)=O)CC3)C2)c1` (centres undefined) | -43.61% | -9.298% |
| `O=C(O)C(F)(F)F.[H][C@]12CCN(C(=O)NCc3ccccc3)C[C@@]1([H])OCCN(CCOC)C2` | -42.59% and -10.97% | -10.2% |
| `CC1c2ncc(CNC(=O)C3CC3)n2CCN1Cc1ccccn1.O=C(O)C(F)(F)F.O=C(O)C(F)(F)F` (centres undefined) | -34.35% | -13.58% |
| `CC(C)c1nsc(NC2CC(=O)N(C(C)(C)C)C2)n1` (centres undefined) | 37.4% | 32.21% |
| `COCCNc1cccc(C2CCCN2)n1` (centres undefined) | -15.9% | -4.34% |
| `CCOc1ccc(CN2C(=O)CC3(CCCC3)C2=O)nc1` | -23.69% and 27.64% | -10.79% |
| `CC(C)Cc1cc(CNc2nc(-c3cccnc3)nc3c2CNC3)no1` | -3.598% | -20.08% |
| `CCNC(=O)[C@@H]1C[C@@H](n2cc(CN(CC)CC)nn2)CN1` | -4.443% | 3.491% and -7.285% |
| `Cc1cc(N2CCC(C(=O)O)(n3ccc(C(C)(C)C)n3)CC2)nc(N)n1` | 16.78% | 6.223% |
| `Cc1cnc(C)c(-c2cccc(-c3ccn(CCN4CCCC4)n3)c2)n1` | 31.94% and 23.29% | 23.42% |
| `CC(C)C[C@H](Nc1nc(C2CCCC2)nc2c1cnn2C)C(N)=O` | -10.3% | -1.659% |
| `O=C(O)C(F)(F)F.O=C(O)C(F)(F)F.[H][C@@]12CN(Cc3ccco3)C[C@]1([H])OCCN2CC1CCCO1` (some centres undefined) | 6.417% | -4.704% |
| `Cn1ncnc1CNC1CCCc2cc(F)ccc21` (centres undefined) | -5.194% | 3.153% |
| `Cc1ccc(CN2CCCn3nnc(COCCN(C)C)c3C2)s1.O=C(O)C(F)(F)F.O=C(O)C(F)(F)F` | -19.59% | -11.84% and -11.71% |
| `CCS(=O)(=O)NC(CCSC)C(=O)Nc1ccccc1C` (centres undefined) | 12.91% | -5.008% |
| `Cc1ccc(C(O)CNC(=O)CCCc2ccccn2)o1` (centres undefined) | 14.72% | -18.61% |
| `CC(C)c1cc(NC(=O)CNC2CCc3ncnn3C2)on1` (centres undefined) | -3.595% and -2.739% | 3.583% |
| `COCC(=O)N1CCC2(CC1)COc1ccccc1S(=O)(=O)N(C)C2` | 8.063% | 1.239% |
| `CC(C)Oc1ncc(C(=O)N2CCC(CC(N)=O)CC2)cc1Cl` | -1.176% | -3.549% |
| `Cn1ccnc1CN1CCN(CC(O)c2ccc(F)c(F)c2)CC1` (centres undefined) | 5.791% | -3.705% |
| `O=C(O)C(F)(F)F.[H][C@@]12COC[C@]1(CNC(=O)c1ccccc1)CN(Cc1cnn(C)c1)C2` | -17.05% | -16.24% |
| `CN(c1nc(Cn2cc(Br)ccc2=O)cs1)C1CC1` | 22.53% | 8.639% |
| `[H][C@]12CCCCN1CCC[C@H]2COc1ccc2c(c1)OCCO2` | -6.351% | -8.531% |
| `COCC(c1cccc(C(F)(F)F)c1)N(C)C(=O)c1cnccn1` (centres undefined) | 19.94% | -6.653% |
| `O=C1CC(c2cccc(Cl)c2)c2snc(C(=O)O)c2N1` (centres undefined) | -13.34% | -20.37% |
| `Cc1nn(C)c(C)c1-c1ccc(=O)n(C(C)C(=O)NC2CC2)n1` (centres undefined) | 32.78% | 4.293% and -4.313% |
| `O=C(NCCN1CCOCC1)c1ccc(-c2ccc(F)cc2)nc1O` | -1.05% | -4.341% |
| `CC(NC(=O)N1CCC(c2ccccc2)CC1)c1nncn1C` (centres undefined) | -13.15% | 3.511% |
| `CC(C)CCc1nc(CNCC2CN(C)CCO2)cs1` (centres undefined) | 11.01% | 7.834% |
| `OCCn1nccc1C1CCN(CCOc2ccc(Cl)cc2)CC1` | 22.5% | -11.16% |
| `O=C(c1ccnc(-n2ccnc2)c1)N1CCCC(n2ccnc2)C1` (centres undefined) | 16.74% | 16.39% |
| `Cc1ncc(CNC(=O)CCc2cccc(F)c2)c(C2CCCN2C)n1` (centres undefined) | 5.301% | 10.7% |
| `O=C(Nc1ccc(Cl)cn1)C1CCCN(Cc2ccccn2)C1` (centres undefined) | 37.36% | 28.38% |
| `O=C(O)C(F)(F)F.O=C(O)C(F)(F)F.[H][C@@]12COC[C@H](C(=O)NCc3ccccn3)[C@]1([H])CN(C1CCCC1)C2` | -85.54% | -51.02% and -38.24% |
| `COc1ccc(Cl)cc1CS(=O)(=O)Cc1noc(C)n1` | -6.498% | -8.405% |
| `CNC(=O)CCNC(=O)Nc1cccc(Cl)c1SC(F)F` | -1.223% and 9.381% | -11.11% |
| `O=C(O)C(F)(F)F.[H][C@@]12CN(C(=O)COC)C[C@]1([H])C(=O)N(Cc1csc(C)n1)C2` | -5.954% | -14.49% |
| `Cc1nn(C)c(N2CCCN(C)CC2)c1CNC(=O)CC(C)(C)C` | -6.801% | 3.609% |
| `CCOc1ccccc1C(CC(=O)N(C)c1ccccc1)NC(C)=O` (centres undefined) | -3.608% | -17.87% |
| `CC(C(=O)NCc1ccc(N2CCCC2)nc1)S(C)(=O)=O` (centres undefined) | -46.77% | -45.19% |
| `Cc1csc(N2CCN(Cc3nccn3C)CC2C)n1` (centres undefined) | 8.754% | 21.32% |
| `COc1cccc(C2SCC(=O)Nc3ccsc32)c1` (centres undefined) | -9.228% | 16.97% and 1.785% |
| `Cc1cc(O)ccc1-c1cc(-c2cnn(C)c2C2CC2)c(C#N)c(N)n1` | 11% | 0.6012% |
| `COc1ncnc2c1CCN(C(=O)Cc1cccc(F)c1)CC2` | 11.26% and 0.1796% | 12.73% |
| `CCN(Cc1cccc2c1OCO2)C(=O)NCc1ccccn1` | -41.69% | -25.46% |
| `CCN1CCCC1CNCc1cc2cc(OC)ccc2[nH]c1=O` (centres undefined) | 33.65% | 17.35% |

3 of the entries, repeated:

SMILES,Mtb glucose medium,Mtb cholesterol medium
CC(C)Cc1cc(CNc2nc(-c3cccnc3)nc3c2CNC3)no1,-3.598%,-20.08%
O=C(c1ccnc(-n2ccnc2)c1)N1CCCC(n2ccnc2)C1 (centres undefined),16.74%,16.39%
Cc1ccc(CN2CCCn3nnc(COCCN(C)C)c3C2)s1.O=C(O)C(F)(F)F.O=C(O)C(F)(F)F,-19.59%,-11.84% and -11.71%